Data on 1 molecule can be found in article doi:10.1101/2025.04.16.649111.

By UniProt entry, the sequences of proteins in these tests, tags left out.
UniProt P21707: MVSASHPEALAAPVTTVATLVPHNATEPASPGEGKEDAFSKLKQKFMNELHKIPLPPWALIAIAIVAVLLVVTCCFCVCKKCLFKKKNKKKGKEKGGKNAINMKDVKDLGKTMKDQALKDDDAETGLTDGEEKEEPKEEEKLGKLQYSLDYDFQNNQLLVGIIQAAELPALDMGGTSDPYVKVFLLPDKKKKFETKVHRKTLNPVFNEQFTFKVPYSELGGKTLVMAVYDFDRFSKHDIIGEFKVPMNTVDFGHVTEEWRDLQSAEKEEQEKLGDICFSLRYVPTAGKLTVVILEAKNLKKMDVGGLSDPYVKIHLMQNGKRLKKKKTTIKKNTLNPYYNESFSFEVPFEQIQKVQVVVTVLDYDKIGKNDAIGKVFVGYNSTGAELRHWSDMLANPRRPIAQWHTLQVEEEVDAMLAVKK

The assay addresses endogenous Synaptotagmin 1 of primary hippocampal neurons (rat) (rat (endogenous in hippocampal neurons)) (UniProt P21707). Nature of the assay: proximity labelling.

These are yes or no findings as the source states them, for the method shown. Binding seen in cells or lysates may run through a third protein. These calls come from enrichment with a bait or labelling near it, and not all partners need be listed.

B1: ciliary neurotrophic factor receptor (Cntfr) (receptor, UniProt Q08406 23-342)
chain: QKHSPQEAPHVQYERLGTDVTLPCGTASWDAAVTWRVNGTDLAPDLLNGSQLILRSLELGHSGLYACFHRDSWHLRHQVLLHVGLPPREPVLSCRSNTYPKGFYCSWHLSAPTYIPNTFNVTVLHGSKMMVCEKDPALKNRCHIRYMHLFSTIKYKVSISVSNALGHNTTAITFDEFTIVKPDPPENVVARPVPSNPRRLEVTWQTPSTWPDPESFPLKFFLRYRPLILDQWQHVELSNGTAHTITDAYAGKEYIIQVAAKDNEIGTWSDWSVAAHATPWTEEPRHLTTEAQAPETTTSTTSSLAPPPTTKICDPGELSS
Consider B1, for which the binding result is on record as “binds”.
